Test results published in the supplement of paper PMC10849652.
Some of the results follow.

Amino acid sequences for entries named in this document (tags omitted). A change or cut given only in a name is not applied to a line headed by its entry.
UniProt A5PLL7: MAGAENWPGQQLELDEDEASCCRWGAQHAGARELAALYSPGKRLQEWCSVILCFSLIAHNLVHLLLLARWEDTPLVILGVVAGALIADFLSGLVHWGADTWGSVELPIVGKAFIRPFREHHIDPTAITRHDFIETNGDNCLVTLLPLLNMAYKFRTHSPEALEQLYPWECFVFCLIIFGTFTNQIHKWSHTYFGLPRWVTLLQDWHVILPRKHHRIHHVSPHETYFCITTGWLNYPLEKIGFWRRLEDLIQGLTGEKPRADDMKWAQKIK
UniProt Q71RG4: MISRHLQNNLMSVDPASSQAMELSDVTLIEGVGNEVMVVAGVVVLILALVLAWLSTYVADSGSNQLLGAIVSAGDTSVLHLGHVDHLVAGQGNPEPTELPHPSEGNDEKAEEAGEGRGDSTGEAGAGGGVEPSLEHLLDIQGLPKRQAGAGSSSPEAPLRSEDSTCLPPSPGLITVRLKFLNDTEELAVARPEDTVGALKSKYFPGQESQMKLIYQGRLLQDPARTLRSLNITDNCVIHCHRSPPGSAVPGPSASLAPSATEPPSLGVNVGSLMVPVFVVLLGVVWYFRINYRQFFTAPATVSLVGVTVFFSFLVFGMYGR
UniProt P42167: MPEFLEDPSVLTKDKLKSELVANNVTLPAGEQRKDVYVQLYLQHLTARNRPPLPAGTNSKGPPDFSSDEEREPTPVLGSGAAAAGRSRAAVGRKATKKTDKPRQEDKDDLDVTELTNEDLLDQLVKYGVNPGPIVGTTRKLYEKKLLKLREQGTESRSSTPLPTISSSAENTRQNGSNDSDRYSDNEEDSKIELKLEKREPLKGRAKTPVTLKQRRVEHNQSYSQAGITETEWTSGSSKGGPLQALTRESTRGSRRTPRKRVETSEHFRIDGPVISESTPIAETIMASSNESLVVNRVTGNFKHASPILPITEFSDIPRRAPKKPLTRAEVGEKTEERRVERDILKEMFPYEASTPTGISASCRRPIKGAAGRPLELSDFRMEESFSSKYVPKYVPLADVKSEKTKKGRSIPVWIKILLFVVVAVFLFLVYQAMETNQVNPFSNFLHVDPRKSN
UniProt P49755: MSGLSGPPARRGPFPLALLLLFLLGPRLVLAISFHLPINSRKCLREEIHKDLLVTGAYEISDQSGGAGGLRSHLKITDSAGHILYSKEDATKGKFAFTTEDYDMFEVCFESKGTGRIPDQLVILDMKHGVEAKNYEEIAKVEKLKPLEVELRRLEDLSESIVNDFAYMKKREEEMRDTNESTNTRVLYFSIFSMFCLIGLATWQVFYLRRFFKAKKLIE
UniProt Q9NR96: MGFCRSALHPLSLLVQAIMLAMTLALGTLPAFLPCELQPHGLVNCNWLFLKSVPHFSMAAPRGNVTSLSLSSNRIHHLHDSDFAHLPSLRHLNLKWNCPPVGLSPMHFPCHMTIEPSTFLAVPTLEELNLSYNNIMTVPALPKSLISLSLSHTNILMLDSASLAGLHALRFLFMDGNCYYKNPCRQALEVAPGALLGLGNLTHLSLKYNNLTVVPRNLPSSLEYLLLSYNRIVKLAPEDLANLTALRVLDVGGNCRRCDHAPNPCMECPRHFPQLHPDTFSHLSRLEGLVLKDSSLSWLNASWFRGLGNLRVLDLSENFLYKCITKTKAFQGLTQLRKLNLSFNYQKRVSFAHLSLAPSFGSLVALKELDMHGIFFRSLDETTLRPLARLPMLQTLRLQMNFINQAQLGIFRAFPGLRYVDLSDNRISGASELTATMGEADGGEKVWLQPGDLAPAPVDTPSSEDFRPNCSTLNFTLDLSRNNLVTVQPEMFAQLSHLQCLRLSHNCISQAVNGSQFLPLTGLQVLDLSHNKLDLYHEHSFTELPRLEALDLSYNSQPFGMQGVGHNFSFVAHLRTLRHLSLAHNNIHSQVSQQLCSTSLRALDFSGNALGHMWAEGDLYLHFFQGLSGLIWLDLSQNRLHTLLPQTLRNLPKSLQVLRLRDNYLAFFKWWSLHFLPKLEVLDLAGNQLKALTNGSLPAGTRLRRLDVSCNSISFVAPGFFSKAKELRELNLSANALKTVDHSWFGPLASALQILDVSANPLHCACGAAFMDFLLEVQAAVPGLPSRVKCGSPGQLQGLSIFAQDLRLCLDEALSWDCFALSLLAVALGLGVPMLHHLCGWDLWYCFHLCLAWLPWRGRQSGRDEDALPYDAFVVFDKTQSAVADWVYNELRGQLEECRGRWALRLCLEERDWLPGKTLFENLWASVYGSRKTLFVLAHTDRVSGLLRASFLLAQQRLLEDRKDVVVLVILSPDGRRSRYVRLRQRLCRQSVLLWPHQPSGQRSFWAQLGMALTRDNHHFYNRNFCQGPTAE
UniProt P28289: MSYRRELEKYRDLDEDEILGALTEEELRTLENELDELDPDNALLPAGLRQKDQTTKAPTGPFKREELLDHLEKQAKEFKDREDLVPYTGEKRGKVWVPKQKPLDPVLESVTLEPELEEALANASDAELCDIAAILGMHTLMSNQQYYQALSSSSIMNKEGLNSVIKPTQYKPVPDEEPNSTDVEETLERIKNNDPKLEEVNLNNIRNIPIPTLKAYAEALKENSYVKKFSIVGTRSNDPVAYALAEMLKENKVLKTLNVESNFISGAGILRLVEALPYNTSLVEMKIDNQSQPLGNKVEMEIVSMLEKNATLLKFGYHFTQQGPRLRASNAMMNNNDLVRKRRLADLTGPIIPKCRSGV
UniProt P57088: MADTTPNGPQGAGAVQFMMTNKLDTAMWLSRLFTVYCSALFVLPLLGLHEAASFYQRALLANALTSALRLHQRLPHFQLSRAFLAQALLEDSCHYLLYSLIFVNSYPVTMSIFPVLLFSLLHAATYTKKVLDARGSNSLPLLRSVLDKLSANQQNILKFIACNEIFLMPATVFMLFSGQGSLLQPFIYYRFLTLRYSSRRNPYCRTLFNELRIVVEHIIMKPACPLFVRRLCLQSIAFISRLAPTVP
UniProt Q9BVK6: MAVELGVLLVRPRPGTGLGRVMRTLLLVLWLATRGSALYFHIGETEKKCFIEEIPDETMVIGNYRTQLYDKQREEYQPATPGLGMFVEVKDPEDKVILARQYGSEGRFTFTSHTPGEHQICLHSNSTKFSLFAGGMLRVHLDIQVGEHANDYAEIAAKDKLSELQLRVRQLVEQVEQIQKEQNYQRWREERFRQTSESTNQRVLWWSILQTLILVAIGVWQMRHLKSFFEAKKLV
UniProt Q9NX00: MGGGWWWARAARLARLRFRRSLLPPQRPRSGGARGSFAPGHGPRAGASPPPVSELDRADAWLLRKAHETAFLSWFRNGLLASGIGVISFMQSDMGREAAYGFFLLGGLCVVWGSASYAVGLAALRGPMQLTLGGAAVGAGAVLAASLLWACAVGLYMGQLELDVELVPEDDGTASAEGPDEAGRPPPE
UniProt A0PJW6: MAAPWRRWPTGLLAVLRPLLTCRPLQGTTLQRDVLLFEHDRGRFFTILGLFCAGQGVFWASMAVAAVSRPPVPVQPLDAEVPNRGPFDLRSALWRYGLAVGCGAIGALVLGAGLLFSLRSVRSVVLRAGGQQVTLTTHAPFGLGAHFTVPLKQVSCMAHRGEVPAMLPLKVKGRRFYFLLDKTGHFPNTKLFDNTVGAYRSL
UniProt Q969X1: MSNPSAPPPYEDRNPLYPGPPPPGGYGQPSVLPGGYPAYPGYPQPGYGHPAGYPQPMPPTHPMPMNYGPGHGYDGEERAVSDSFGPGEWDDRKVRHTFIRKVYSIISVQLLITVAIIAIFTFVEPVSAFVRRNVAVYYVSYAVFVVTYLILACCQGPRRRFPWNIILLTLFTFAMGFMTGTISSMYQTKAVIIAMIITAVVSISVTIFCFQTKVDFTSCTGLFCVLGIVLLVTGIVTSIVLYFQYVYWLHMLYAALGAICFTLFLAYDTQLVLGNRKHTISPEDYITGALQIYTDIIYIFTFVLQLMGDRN
UniProt Q99805: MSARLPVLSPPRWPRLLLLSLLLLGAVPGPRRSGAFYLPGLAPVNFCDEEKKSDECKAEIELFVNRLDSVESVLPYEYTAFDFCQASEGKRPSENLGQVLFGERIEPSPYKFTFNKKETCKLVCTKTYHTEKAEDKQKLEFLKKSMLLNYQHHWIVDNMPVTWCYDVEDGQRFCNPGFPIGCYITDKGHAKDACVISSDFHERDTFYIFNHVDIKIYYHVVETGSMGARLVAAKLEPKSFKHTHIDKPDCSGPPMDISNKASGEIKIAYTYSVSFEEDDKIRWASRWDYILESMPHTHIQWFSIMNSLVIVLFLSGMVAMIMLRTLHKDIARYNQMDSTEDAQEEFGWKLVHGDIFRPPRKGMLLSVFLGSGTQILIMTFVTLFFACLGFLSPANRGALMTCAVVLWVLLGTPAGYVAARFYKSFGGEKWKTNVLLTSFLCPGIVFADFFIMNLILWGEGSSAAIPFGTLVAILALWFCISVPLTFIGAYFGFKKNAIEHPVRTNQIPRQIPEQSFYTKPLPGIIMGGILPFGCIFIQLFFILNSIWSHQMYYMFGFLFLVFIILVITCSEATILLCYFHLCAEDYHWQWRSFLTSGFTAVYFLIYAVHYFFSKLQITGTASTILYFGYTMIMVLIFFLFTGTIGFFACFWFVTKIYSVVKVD
UniProt O95379: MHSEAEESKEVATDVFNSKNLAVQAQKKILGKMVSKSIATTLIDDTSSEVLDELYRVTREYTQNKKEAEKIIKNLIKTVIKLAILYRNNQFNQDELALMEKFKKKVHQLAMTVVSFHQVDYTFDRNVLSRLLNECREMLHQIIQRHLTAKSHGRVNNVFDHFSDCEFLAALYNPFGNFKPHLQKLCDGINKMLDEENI
UniProt Q9UKI8: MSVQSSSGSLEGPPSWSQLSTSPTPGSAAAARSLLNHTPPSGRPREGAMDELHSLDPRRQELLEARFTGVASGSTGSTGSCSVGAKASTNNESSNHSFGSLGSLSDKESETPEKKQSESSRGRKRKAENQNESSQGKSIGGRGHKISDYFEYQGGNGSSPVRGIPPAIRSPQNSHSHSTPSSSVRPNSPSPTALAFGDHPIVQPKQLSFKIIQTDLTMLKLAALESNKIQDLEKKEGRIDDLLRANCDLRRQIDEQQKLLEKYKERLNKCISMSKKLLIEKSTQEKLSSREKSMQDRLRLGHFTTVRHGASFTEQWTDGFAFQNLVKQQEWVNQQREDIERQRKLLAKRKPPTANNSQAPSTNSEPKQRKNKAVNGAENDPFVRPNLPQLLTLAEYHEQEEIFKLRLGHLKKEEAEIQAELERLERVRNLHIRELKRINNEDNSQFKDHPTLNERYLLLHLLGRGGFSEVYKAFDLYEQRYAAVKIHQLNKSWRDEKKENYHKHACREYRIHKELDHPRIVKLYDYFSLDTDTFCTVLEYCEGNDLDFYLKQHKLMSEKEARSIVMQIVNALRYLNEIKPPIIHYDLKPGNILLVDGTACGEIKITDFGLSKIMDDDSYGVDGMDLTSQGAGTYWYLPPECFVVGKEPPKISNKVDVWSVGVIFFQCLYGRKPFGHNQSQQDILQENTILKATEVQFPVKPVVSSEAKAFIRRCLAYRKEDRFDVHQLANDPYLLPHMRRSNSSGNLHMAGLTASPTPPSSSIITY
UniProt Q9BVX2: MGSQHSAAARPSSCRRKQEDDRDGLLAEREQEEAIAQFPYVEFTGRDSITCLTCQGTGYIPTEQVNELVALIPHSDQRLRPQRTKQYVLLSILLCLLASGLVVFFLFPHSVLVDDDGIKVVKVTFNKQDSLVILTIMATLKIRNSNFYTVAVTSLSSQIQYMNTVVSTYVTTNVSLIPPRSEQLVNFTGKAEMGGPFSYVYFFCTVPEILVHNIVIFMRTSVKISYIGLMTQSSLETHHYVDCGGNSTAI
UniProt Q86UE8, whole entry, looked up: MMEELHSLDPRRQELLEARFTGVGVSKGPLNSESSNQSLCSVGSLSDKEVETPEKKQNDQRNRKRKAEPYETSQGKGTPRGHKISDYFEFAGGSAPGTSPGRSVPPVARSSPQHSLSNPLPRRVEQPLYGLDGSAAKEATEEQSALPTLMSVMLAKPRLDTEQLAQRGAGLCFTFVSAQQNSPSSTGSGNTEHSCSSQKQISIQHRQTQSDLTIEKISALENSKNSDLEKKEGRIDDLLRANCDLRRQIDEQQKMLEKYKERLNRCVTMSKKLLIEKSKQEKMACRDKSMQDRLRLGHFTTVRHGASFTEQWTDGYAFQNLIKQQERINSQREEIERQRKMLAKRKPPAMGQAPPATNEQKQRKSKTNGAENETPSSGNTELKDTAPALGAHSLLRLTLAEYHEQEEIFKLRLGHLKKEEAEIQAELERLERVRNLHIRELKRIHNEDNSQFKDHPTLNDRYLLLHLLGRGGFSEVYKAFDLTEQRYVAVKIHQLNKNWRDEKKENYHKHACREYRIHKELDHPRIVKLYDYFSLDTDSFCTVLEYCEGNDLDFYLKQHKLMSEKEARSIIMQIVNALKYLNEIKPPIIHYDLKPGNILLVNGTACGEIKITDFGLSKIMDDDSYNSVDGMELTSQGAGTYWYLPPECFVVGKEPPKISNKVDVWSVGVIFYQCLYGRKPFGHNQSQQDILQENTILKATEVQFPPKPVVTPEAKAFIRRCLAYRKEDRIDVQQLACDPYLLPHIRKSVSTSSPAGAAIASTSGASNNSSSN

How the values were obtained:
Experiment in all cases: log2 fold change, soluble protein after heating vs DMSO (PISA); higher = thermal stabilisation; K562 cells, 10 uM, 30 min; active = over 0.2 and 3.5 SD of the protein, either way, in both replicates (recomputed)
saracatinib = compound: CN1CCN(CCOc2cc(OC3CCOCC3)c3c(Nc4c(Cl)ccc5c4OCO5)ncnc3c2)CC1 [saracatinib]
In short: (§1)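 Soluble protein was quantified by TMTpro 16plex LC-MS/MS after channel sums were equalised. It was obtained as the supernatant after 21,000xg for 90 min from pooled aliquots of K562 cells (2×10^6 cells/mL, 10 μM compound, 30 min) heated for 3 min across 48°C-58°C and extracted in PBS with 0.5% NP-40 at 4°C. Thermal stability values are relative to control samples and come from duplicates. They are given as log2 fold changes.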

sotrastaurin = compound: CN1CCN(c2nc(C3=C(c4c[nH]c5ccccc45)C(=O)NC3=O)c3ccccc3n2)CC1 [sotrastaurin]
In short: as §1

alvocidib = compound: CN1CC[C@H](c2c(O)cc(O)c3c(=O)cc(-c4ccccc4Cl)oc23)[C@H](O)C1 [alvocidib]
In short: as §1

Tubastatin A = compound: CN1CCc2c(c3ccccc3n2Cc2ccc(C(=O)NO)cc2)C1 [Tubastatin A]
In short: as §1

[1] = compound: CNC(=O)C1=CC=CC=C1NC2=NC(=NC=C2Cl)NC3=C(C=C(C=C3)N4CCOCC4)OC
In short: as §1

defactinib = compound: CNC(=O)c1ccc(Nc2ncc(C(F)(F)F)c(NCc3nccnc3N(C)S(C)(=O)=O)n2)cc1 [defactinib]
In short: as §1

rucaparib = compound: CNCc1ccc(-c2[nH]c3cc(F)cc4c3c2CCNC4=O)cc1 [rucaparib]
In short: as §1

[2] = compound: CNc1nc(-c2ccc3c(N)n[nH]c3c2)cc(N2C[C@@H](C(=O)NC3CCCCC3)CC[C@H]2C)n1
In short: as §1

encorafenib = compound: COC(=O)N[C@@H](C)CNc1nccc(-c2cn(C(C)C)nc2-c2cc(Cl)cc(NS(C)(=O)=O)c2F)n1 [encorafenib]
In short: as §1

[3] = compound: COC(=O)[C@H](CCSC)NC(=O)C1=C(C=C(C=C1)NC[C@H](CS)N)C2=CC=CC=C2
In short: as §1

Measured: log2 fold change

TMEM68 (UniProt Q96MH6)
inactive: saracatinib 0.121 | sotrastaurin 0.049 | alvocidib -0.014 | Tubastatin A -0.026 | [1] 0.005 | defactinib -0.031 | rucaparib -0.028 | [2] -0.014 | encorafenib 0.004 | [3] 0.046

TMEM189 (UniProt A5PLL7)
inactive: saracatinib 0.133 | sotrastaurin 0.007 | alvocidib -0.011 | Tubastatin A 0.143 | [1] -0.136 | defactinib -0.017 | rucaparib 0.022 | [2] 0.043 | encorafenib 0.009 | [3] -0.022

TMUB2 (UniProt Q71RG4)
inactive: saracatinib 0.147 | sotrastaurin -0.033 | alvocidib 0.065 | Tubastatin A -0.052 | [1] -0.03 | defactinib -0.032 | rucaparib 0.017 | [2] -0.013 | encorafenib 0.068 | [3] 0.031

TMCC1 (UniProt O94876)
inactive: saracatinib 0.193 | sotrastaurin -0.137 | alvocidib 0.021 | [2] -0.214

TMPO (UniProt P42167)
inactive: saracatinib 0.011 | sotrastaurin 0.01 | alvocidib -0.047 | Tubastatin A 0.009 | [1] -0.003 | defactinib -0.005 | rucaparib -0.122 | [2] -0.019 | encorafenib 0.02 | [3] -0.014

TMED10 (UniProt P49755)
inactive: saracatinib -0.013 | sotrastaurin 0.038 | alvocidib -0.041 | Tubastatin A -0.026 | [1] 0.081 | defactinib -0.012 | rucaparib 0.002 | [2] -0.037 | encorafenib -0.016 | [3] -0.018

TM9SF1 (UniProt O15321)
inactive: saracatinib 0.018 | sotrastaurin 0.079 | alvocidib 0.029 | Tubastatin A 0.013 | [1] 0.029 | defactinib -0.139 | rucaparib 0.027 | [2] 0.001 | encorafenib 0.087 | [3] -0.028

TLR9 isoform 4 (UniProt Q9NR96)
inactive: saracatinib -0.001 | sotrastaurin -0.008 | alvocidib 0 | Tubastatin A -0.045 | [1] -0.046 | defactinib -0.028 | rucaparib 0.017 | [2] 0.407 | encorafenib -0.076 | [3] 0.03

TMEM126B (UniProt Q8IUX1)
inactive: saracatinib 0.053 | sotrastaurin 0.042 | alvocidib -0.033 | Tubastatin A -0.115 | [1] 0.024 | defactinib -0.053 | rucaparib -0.138 | [2] -0.075 | encorafenib 0.194 | [3] -0.028

TMOD1 (UniProt P28289)
inactive: saracatinib -0.067 | sotrastaurin -0.112 | alvocidib 0.068 | Tubastatin A 0.066 | [1] -0.009 | defactinib -0.047 | rucaparib 0.093 | [2] 0.027 | encorafenib 0.15 | [3] 0.033

TMEM186 (UniProt Q96B77)
inactive: saracatinib -0.003 | sotrastaurin -0.022 | alvocidib -0.113 | Tubastatin A -0.047 | [1] 0.009 | defactinib -0.044 | rucaparib -0.067 | [2] 0.016 | encorafenib -0.103 | [3] -0.036

TMEM33 (UniProt P57088)
inactive: saracatinib 0.057 | sotrastaurin -0.001 | alvocidib -0.046 | Tubastatin A -0.072 | [1] 0.021 | defactinib -0.041 | rucaparib -0.006 | [2] -0.005 | encorafenib 0.03 | [3] 0.005

TMEM70 (UniProt Q9BUB7)
inactive: saracatinib 0.106 | sotrastaurin 0.028 | Tubastatin A 0.011 | [1] 0.142 | defactinib -0.004 | rucaparib -0.057 | [2] -0.001 | encorafenib 0.009 | [3] 0

TMED9 (UniProt Q9BVK6)
inactive: saracatinib 0.014 | sotrastaurin 0.048 | alvocidib -0.07 | Tubastatin A -0.022 | [1] 0.064 | defactinib -0.023 | rucaparib -0.074 | [2] -0.052 | encorafenib 0.028 | [3] 0.007

TMEM147 (UniProt Q9BVK8)
inactive: saracatinib 0.132 | sotrastaurin 0.059 | alvocidib 0.023 | Tubastatin A 0.01 | [1] 0 | defactinib -0.125 | [2] -0.001 | [3] -0.021

Copied from the results shown (two entries):
TMED9 (UniProt Q9BVK6)
inactive: saracatinib 0.014 | sotrastaurin 0.048 | alvocidib -0.07 | Tubastatin A -0.022 | [1] 0.064 | defactinib -0.023 | rucaparib -0.074 | [2] -0.052 | encorafenib 0.028 | [3] 0.007

TMEM147 (UniProt Q9BVK8)
inactive: saracatinib 0.132 | sotrastaurin 0.059 | alvocidib 0.023 | Tubastatin A 0.01 | [1] 0 | defactinib -0.125 | [2] -0.001 | [3] -0.021

Next entries

TMEM160 (UniProt Q9NX00)
inactive: saracatinib 0.046 | sotrastaurin 0.051 | alvocidib 0.131 | Tubastatin A 0.017 | [1] -0.009 | defactinib -0.018 | rucaparib 0.181 | [2] 0.145 | encorafenib -0.012 | [3] -0.041

TMEM245 (UniProt Q9H330)
inactive: saracatinib 0.049 | sotrastaurin 0.017 | alvocidib 0.021 | Tubastatin A -0.045 | [1] -0.017 | defactinib 0.017 | rucaparib -0.1 | [2] -0.063 | encorafenib -0.023 | [3] 0.057

TMEM223 (UniProt A0PJW6)
inactive: saracatinib 0.114 | sotrastaurin 0.048 | Tubastatin A -0.059 | [1] 0.045 | defactinib 0.015 | rucaparib -0.03 | [2] -0.02 | encorafenib -0.047 | [3] 0.022

TMBIM1 (UniProt Q969X1)
inactive: saracatinib -0.147 | sotrastaurin 0.012 | Tubastatin A 0.002 | [1] -0.042 | defactinib 0.043 | rucaparib -0.009 | [2] -0.097 | encorafenib -0.223 | [3] 0.051

TMEM173 (UniProt Q86WV6)
inactive: saracatinib -0.002 | sotrastaurin -0.023 | Tubastatin A 0.03 | [1] 0.014 | defactinib -0.055 | rucaparib -0.078 | [2] 0.034 | encorafenib 0.062 | [3] -0.005

TMEM208 (UniProt Q9BTX3)
inactive: saracatinib -0.047 | sotrastaurin -0.02 | Tubastatin A 0.003 | [1] -0.142 | defactinib -0.023 | rucaparib -0.045 | [2] -0.099 | encorafenib 0.145 | [3] -0.164

TMEM189-UBE2V1 (UniProt I3L0A0)
inactive: saracatinib 0.041 | sotrastaurin 0.157 | Tubastatin A -0.007 | [1] -0.004 | defactinib -0.014 | rucaparib -0.059 | [2] -0.038 | encorafenib 0 | [3] 0.018

TM9SF2 (UniProt Q99805)
inactive: saracatinib 0.038 | sotrastaurin -0.01 | Tubastatin A -0.001 | [1] 0.005 | defactinib 0.006 | rucaparib 0.015 | [2] -0.031 | encorafenib 0.001 | [3] -0.069

TNFAIP8 isoform 4 (UniProt O95379)
inactive: saracatinib 0.009 | sotrastaurin -0.125 | Tubastatin A 0.083 | [1] -0.046 | defactinib -0.033 | rucaparib -0.04 | [2] -0.064 | encorafenib -0.016 | [3] -0.015

TMBIM6 isoform 2 (UniProt P55061)
inactive: saracatinib 0.08 | sotrastaurin -0.029 | Tubastatin A 0.062 | [1] -0.004 | defactinib -0.007 | rucaparib -0.065 | [2] -0.006 | encorafenib -0.005 | [3] 0.039

TMEM184C (UniProt Q9NVA4)
inactive: saracatinib 0.022 | sotrastaurin 0.139 | Tubastatin A 0.022 | defactinib -0.049 | rucaparib 0.028 | [2] -0.182 | encorafenib 0.051 | [3] 0.118

TLK1 (UniProt Q9UKI8)
inactive: saracatinib 0.022 | sotrastaurin -0.011 | Tubastatin A 0.036 | [1] -0.064 | defactinib -0.013 | rucaparib -0.029 | [2] -0.002 | encorafenib 0.022 | [3] -0.033

TMEM106C (UniProt Q9BVX2)
inactive: saracatinib 0.085 | sotrastaurin -0.112 | [1] -0.16 | defactinib 0.322 | [2] -0.193 | [3] 0.082

TLK2 isoform 2 (UniProt Q86UE8)
inactive: saracatinib 0.048 | sotrastaurin -0.012 | Tubastatin A 0.014 | [1] -0.031 | defactinib 0 | rucaparib -0.051 | [2] -0.003 | encorafenib -0.006 | [3] 0
